Source: PMC8462815
These are yes or no findings as the source states them, for the method shown. In cells and extracts the contact can be indirect. These calls come from enrichment with a bait or labelling near it, and not all partners need be listed. Sequences can lack the tags named with a protein.

Molecular target: T1, GFP-tagged Arabidopsis SEIPIN1 (Arabidopsis thaliana) (UniProt Q9FFD9)
T1 sequence: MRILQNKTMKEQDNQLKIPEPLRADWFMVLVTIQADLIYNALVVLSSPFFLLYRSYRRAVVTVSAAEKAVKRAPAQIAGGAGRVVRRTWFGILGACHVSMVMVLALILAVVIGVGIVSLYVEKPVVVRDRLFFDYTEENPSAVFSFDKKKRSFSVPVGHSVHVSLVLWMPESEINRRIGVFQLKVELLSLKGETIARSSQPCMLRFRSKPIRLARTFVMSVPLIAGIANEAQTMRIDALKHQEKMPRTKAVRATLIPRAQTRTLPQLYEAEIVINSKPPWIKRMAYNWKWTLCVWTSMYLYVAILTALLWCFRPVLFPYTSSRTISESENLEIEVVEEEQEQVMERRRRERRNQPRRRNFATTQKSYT
Assay: affinity purification with mass spectrometry; GFP-Trap agarose (anti-GFP VHH on agarose beads) on extracts of A. tumefaciens-infiltrated N. benthamiana leaves expressing GFP alone or GFP-SEIPIN1, with or without co-expressed Arabidopsis LEC2; co-purifying proteins identified by MS

Substance | binding
endogenous N. benthamiana LDIP | binds
endogenous N. benthamiana oleosin (oleosin isoform 5 [OLE5]) | binds
